According to publication PMC7819943, “Rice protein-binding microarrays: a tool to detect cis-acting elements near promoter regions in rice”:
Some of the results follow.

Molecular target: T1, OsSMF1 (Oryza sativa, UniProt Q6ZLB0 1-436)
T1 sequence: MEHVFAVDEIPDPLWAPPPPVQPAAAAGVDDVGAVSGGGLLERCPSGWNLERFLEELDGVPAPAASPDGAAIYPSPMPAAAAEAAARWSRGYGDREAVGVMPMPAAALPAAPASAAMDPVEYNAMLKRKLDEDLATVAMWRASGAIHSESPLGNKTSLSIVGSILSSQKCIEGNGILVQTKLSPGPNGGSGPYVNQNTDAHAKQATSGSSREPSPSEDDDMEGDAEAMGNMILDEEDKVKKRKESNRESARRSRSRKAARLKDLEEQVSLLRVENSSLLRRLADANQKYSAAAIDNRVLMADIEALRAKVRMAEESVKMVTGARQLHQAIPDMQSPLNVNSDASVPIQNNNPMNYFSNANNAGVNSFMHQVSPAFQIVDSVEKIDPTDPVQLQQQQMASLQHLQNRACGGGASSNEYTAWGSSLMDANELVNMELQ
Assay: protein-binding microarray (RPBM); PBS, 2% BSA, 51.3 ng/ul salmon testes DNA, 50 uM zinc acetate, 200 nM TF, 25 C, 1 h; high values mean tight binding
Conditions: protein: recombinant; tags: N-terminal polyhistidine and DsRed monomer fusion (pET32a); chain copies: 2; label: CyDye5-dUTP incorporated in the synthesized complementary strand; 3' TTTTT single-stranded linker to array surface; dsDNA, one strand shown
Summary of the method: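 Polyhistidine-tagged DsRed fusions of transcription factors, joined at the N-terminus, were expressed in E. coli BL21-CodonPlus and isolated on Ni–NTA. They were incubated at 200 nM for 1 h at 25 °C on a custom Agilent array, double-stranded and BSA-blocked, in PBS with 2% BSA, salmon testes DNA and 50 µM zinc acetate. The binding signal is per-feature fluorescence intensity (arbitrary units) read on an Axon 4000B scanner after washing.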

In order of falling binding signal:
1. ACTAAGCTGCCACGTGGATGCCACGTCAGCGAAAACCACCCGGAGTCACCTAGTGCAG  61800 fluorescence intensity (a.u.)
2. ATTTTATTGCCACATAAGCGCCACGTCAATGCCACGTGGGCGGAGTCACCTAGTGCAG  56000 fluorescence intensity (a.u.)
3. AAAGCTTAACTGGCTAGGTTTCTTACAGTGAAACTAATCACGGAGTCACCTAGTGCAG  38900 fluorescence intensity (a.u.)
4. GATTCATTTGCCACGTCAATGCCACGTTGGACGAGGACCTCGGAGTCACCTAGTGCAG  37700 fluorescence intensity (a.u.)
5. AAAATTAAACGACATTCCCCGAGAGCACCGCCCCGTCAAGCGGAGTCACCTAGTGCAG  30500 fluorescence intensity (a.u.)
6. ATGATATAATAACGATGACAATATCTTACTAGCAAATCATCGGAGTCACCTAGTGCAG  30000 fluorescence intensity (a.u.)
7. TTCCAAATCTACTTTGACGGTATTTATGGAATCAGACATTCGGAGTCACCTAGTGCAG  25400 fluorescence intensity (a.u.)
8. AATAATTTTGTGTTCGCTATTGGAGGGTACACTAAGTTGACGGAGTCACCTAGTGCAG  25300 fluorescence intensity (a.u.)
9. AACCTAAACCAATTAGGCCCCGTTCTTTCACGATTAAGATCGGAGTCACCTAGTGCAG  22900 fluorescence intensity (a.u.)
10. TCTCTCTCTATCGCTCGCGGTTGCTCAGGCAAGCTGAGAGCGGAGTCACCTAGTGCAG  22500 fluorescence intensity (a.u.)
11. TCTTCTTTAAAAGCAGGAGTAGATCTTGGATCCTTCGAGTCGGAGTCACCTAGTGCAG  16900 fluorescence intensity (a.u.)
12. CTCAAGACACTGTTGTAACAGTGCCTTTCTGCTGTTACAGCGGAGTCACCTAGTGCAG  16600 fluorescence intensity (a.u.)
13. GAGAAACCGTAGGGGACTAACCGTGCTTATCTCTGAAGTCCGGAGTCACCTAGTGCAG  15000 fluorescence intensity (a.u.)
14. GCGTGGACGCGGCCGGGGCGCGACACGTCAACAGGCTCTGCGGAGTCACCTAGTGCAG  13100 fluorescence intensity (a.u.)
15. TTCGGGCCCCTGAATTGTTAGGTAATAACCCTACATCCTGCGGAGTCACCTAGTGCAG  13000 fluorescence intensity (a.u.)
16. GCAACTTCCGTCCATCCGCAACTACTGTATACGTGTATACCGGAGTCACCTAGTGCAG  8870 fluorescence intensity (a.u.)
17. CATGTACTCCCGTCCAGGCGTCCGCGTCATCGCGTATCGCCGGAGTCACCTAGTGCAG  8520 fluorescence intensity (a.u.)
18. TTATCTTTTACGGGGAGGAGACACGTCGACTCGTGAATATCGGAGTCACCTAGTGCAG  7690 fluorescence intensity (a.u.)
19. AATGGAAATATCTGATGATTTACGTCAGCGAAATTGTTGTCGGAGTCACCTAGTGCAG  7300 fluorescence intensity (a.u.)
20. CGTCGGTTTGCTGAATCAGCAAAAGCCGACCACCGACCCCCGGAGTCACCTAGTGCAG  6910 fluorescence intensity (a.u.)
21. ATTGTGTTATATGACTTGGCACATCTTTCTTATTTTGAATCGGAGTCACCTAGTGCAG  6740 fluorescence intensity (a.u.)
22. TCCTTTCCCTAGCCACCTCACACACCATCTGCTTGCATCTCGGAGTCACCTAGTGCAG  6270 fluorescence intensity (a.u.)
23. GATAAGCAACCAAGCCAGGTCACTCTCCTCTACTACATCCCGGAGTCACCTAGTGCAG  5800 fluorescence intensity (a.u.)
24. GCGGCGACGACCACGCCGGCGGTGACGAAGCCATGACCACCGGAGTCACCTAGTGCAG  5780 fluorescence intensity (a.u.)
25. GGGTTGACGTCAGGCTCGGCCCGGCCCTCCCCAGCCCATTCGGAGTCACCTAGTGCAG  5660 fluorescence intensity (a.u.)
26. ACGTACGTGTCGTTCTTGACTATTTCTAGCCGGCCAATCTCGGAGTCACCTAGTGCAG  5510 fluorescence intensity (a.u.)
27. TTTATCTCTACTTTCCAACTCATCTCCTCCGTTTTCCGCGCGGAGTCACCTAGTGCAG  5260 fluorescence intensity (a.u.)
28. AAGGATCGACGAGCCGACACGTCGGTCTCATTCGATGGGCCGGAGTCACCTAGTGCAG  4820 fluorescence intensity (a.u.)
29. AGGATCCCGTACGTGGAGTATGCGAACGCCGCATCGCTCTCGGAGTCACCTAGTGCAG  4650 fluorescence intensity (a.u.)
30. AAGTGTGGAGGTGGCATATCTTTATCCATTTGGTTGTTATCGGAGTCACCTAGTGCAG  4430 fluorescence intensity (a.u.)
31. ACCCTCCCGCGACCGCCGCGTGTATGCGCCGCCGTCGCCGCGGAGTCACCTAGTGCAG  4360 fluorescence intensity (a.u.)
32. GCCGATTGCAATTTCGTCATCACTGCGGTTAGGATTACACCGGAGTCACCTAGTGCAG  4340 fluorescence intensity (a.u.)
33. TCCTAACCCATCCAACTCATCTATATAAGCTCCAACCATTCGGAGTCACCTAGTGCAG  4330 fluorescence intensity (a.u.)
34. CGTTACCGCTTTCATCACTGCCTCCGTCACGCGCTGCCTACGGAGTCACCTAGTGCAG  4310 fluorescence intensity (a.u.)
35. ATGGCGGAGGATGAGTCGGCGTCGTGGTTTCAGTACCCGGCGGAGTCACCTAGTGCAG  4180 fluorescence intensity (a.u.)
36. CCGCACCGGGCACACCGTGTCGATCATCGTCGTCATCCCCCGGAGTCACCTAGTGCAG  4050 fluorescence intensity (a.u.)
37. GTCGAGACAAACGGCACTGCCAGTAGGATTCGTTTCACATCGGAGTCACCTAGTGCAG  4000 fluorescence intensity (a.u.)
38. CAGTATAAATACCGAGGTGTGGTGACGCTTACTTCTCCACCGGAGTCACCTAGTGCAG  3950 fluorescence intensity (a.u.)
39. ACGAACTTAAAAGTTGACTCATACATGGATGACGTAACAACGGAGTCACCTAGTGCAG  3890 fluorescence intensity (a.u.)
40. AGCCAGCTGCAGCACGGACTCCAAGACATAATGTGTGTATCGGAGTCACCTAGTGCAG  3880 fluorescence intensity (a.u.)
41. GGGCTTCTGTTGGGGCCGATCCAGTTGTCGGGCCTCATGACGGAGTCACCTAGTGCAG  3830 fluorescence intensity (a.u.)
42. CGCCCGCAACCACCCGTCCGCATCCGTCGCCTCACGCCTTCGGAGTCACCTAGTGCAG  3830 fluorescence intensity (a.u.)
43. CCTCAGTCCCGCCGCCACCGCCACCGCCACCACTACCACTCGGAGTCACCTAGTGCAG  3800 fluorescence intensity (a.u.)
44. ACAAAGGAGAAGAAGCCATGATGTGGAGTTGGCCGGTGGCCGGAGTCACCTAGTGCAG  3800 fluorescence intensity (a.u.)
45. CCGTTCTCTCTTCGTAGCCTGCGTGGCCTTGCCCCTTCGCCGGAGTCACCTAGTGCAG  3770 fluorescence intensity (a.u.)
46. CGTTGCCGCCATCACAGTCACTATCATGGCCAGATCCATCCGGAGTCACCTAGTGCAG  3710 fluorescence intensity (a.u.)
47. ACCCAGCTGATACCGTACGTACACTTGTGGTCAATGATCACGGAGTCACCTAGTGCAG  3650 fluorescence intensity (a.u.)
48. AAAGCTGACCTATCTTGATCTCCACAACAACAGCCTCACTCGGAGTCACCTAGTGCAG  3550 fluorescence intensity (a.u.)
49. TCCCAGGTGGATGGTGAATTGGTGATCTGTGTCAGTTCATCGGAGTCACCTAGTGCAG  3510 fluorescence intensity (a.u.)
50. TCTAAACTGGTTTATTATCACCCGTCACGGATAACTATTACGGAGTCACCTAGTGCAG  3480 fluorescence intensity (a.u.)
51. GGCTATCAGATATGCCGACGTTATCAACTCTGTTGTCCTGCGGAGTCACCTAGTGCAG  3380 fluorescence intensity (a.u.)
52. ATTTGTAGTCTTTATGCATTTAAGACTTAAATAAATAGATCGGAGTCACCTAGTGCAG  3240 fluorescence intensity (a.u.)
53. TCCGGTTAACGGGTGTCGTGGCTGGTGTGTTCGCGTGGGACGGAGTCACCTAGTGCAG  3210 fluorescence intensity (a.u.)
54. TCCACCTGACGGGCCGGAGCCTGACGCGGGCCGCGGGGAACGGAGTCACCTAGTGCAG  3190 fluorescence intensity (a.u.)
